The values below come from PubChem BioAssay AID1487 (National Center for Advancing Translational Sciences (NCATS), 2009).

Values joined by “and” are separate entries in the source; they are usually repeats but may differ in a detail not shown here. Equal values may be shown once. The list shows a part of the results. These are further read-outs of the screen, such as a control signal, another cell line or another target. No call is given for them. The list favours compounds with an active or inconclusive main result. Words in brackets tell the shape of the fitted curve; partial curves, single points and poor fits give uncertain potencies.

A short description of this assay: qHTS Assay for Modulators of Lamin A Splicing. As to conditions: HeLa LMNA splicing GFP/RFP minigene ratio, 48 h. Summed up:
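Read-out is the ratio of GFP to DsRed2 object intensity, acquired by 488 nm laser-scanning cytometry on HeLa lamin A-EGFP minigene reporter cells. Compound incubation 48 hrs at 37 °C in Opti-MEM with 2% FBS; DMSO 0.5% final.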

The mark [1] stands for this setting: measured here: RFP viability control channel.
Where [2] appears, read: measured here: GFP splicing reporter channel.

As for `C=CC(c1ccccc1)C(C(=O)c1ccccc1)N(C)C` (stereo unspecified), the AC50 (as a rule, the concentration at which the activity in the assay is half-maximal) under setting [1] is 2.24 µM [falling, full curve, poor fit].

In the case of `Cc1nc(N)nc(N)c1/C=C/C(C)(C)c1ccc(Cl)cc1`, the AC50 by setting is: under setting [2], 20 µM [falling, partial curve]; under setting [1], 20 µM [falling, partial curve].

`COc1ccc(-c2nc3cnc(Oc4cccc(Cl)c4)nc3n(CCC#N)c2=O)cc1`: the AC50 is 12.6 µM [falling, partial curve] under setting [2] and 11.2 µM [falling, partial curve] under setting [1].

As for `COc1cc(S(=O)(=O)N2CCCCC2)ccc1NC(=O)c1ccccc1Cl`, the AC50 under setting [1] was 35.5 µM [rising, single point].

Regarding `Cc1ccc(CNc2ncnc3c2cnn3-c2ccc(Cl)cc2)cc1`, the AC50 under setting [2] was 35.5 µM [falling, single point] and the AC50 under setting [1] is 0.0282 µM [falling, full curve, poor fit].

In the case of `OCc1cc(C(O)CNCCCCCCOCCCCc2ccccc2)ccc1O` (stereo unspecified), the AC50 was 17.8 µM [falling, single point] and 1.26 nM [falling, full curve, poor fit] under setting [2]; 14.1 µM [falling, partial curve] under setting [1].

For `COc1ccc(-c2nn(-c3ccccc3)cc2/C=N/NC(=S)NC(C)C)cc1OC`, the AC50 under setting [1] was 5.01 µM [rising, full curve, poor fit].

Turning to `CCN1CCN(c2nc(Nc3ccc(C)c(C)c3)nc(N)c2[N+](=O)[O-])CC1`, the AC50 by setting is: under setting [2], 0.02 µM [rising, full curve, poor fit]; under setting [1], 0.0562 µM [rising, partial curve, poor fit].

`C#CCN1C(C)=C(C(=O)OC)C(c2cccc([N+](=O)[O-])c2)C(C(=O)OCC)=C1C` (stereo unspecified): under setting [1], the AC50 is 0.00224 µM [falling, full curve, poor fit].

Turning to `COCCNC(=O)C12CC3CC(C1)CC(c1ccccc1)(C3)C2`, under setting [1], the AC50 is 0.0178 µM [falling, full curve, poor fit].

With `O=C(NCCCN1CCOCC1)c1cc(-c2cccs2)on1`, the AC50 runs as follows: under setting [2], 35.5 µM [falling, single point]; under setting [1], 31.6 µM [falling, single point].

For `CC(=O)Nc1cc(O)cc(O)c1`, the AC50 under setting [1] is 1.26 µM [falling, partial curve].

As for `CCOc1cc(CNC(C)(C)C)ccc1OCC(=O)Nc1cccc(C(F)(F)F)c1`, under setting [1], the AC50 was 25.1 µM [rising, partial curve, poor fit].

Turning to `CCc1nnc(NS(=O)(=O)c2ccc(NC(=S)NC(=O)/C=C/c3ccc(OC)cc3)cc2)s1`, the AC50 is, setting by setting: under setting [2], 5.62 µM [falling, single point]; under setting [1], 4.47 µM [falling, single point].
